For 27 compounds, EC50 results are on record in PubChem BioAssay AID434947 (Broad Institute, 2010).

The structures appear in SMILES notation. Screen size: about 2,200 compounds; about 15 (0.7%) were called active.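 How the source made its calls: active means fitted half-maximal concentration for loss of luminescence signal no more than a set limit of log units above the top tested concentration; inconclusive means flat fit with 30 to 70% signal loss, or invalid fit; inactive means half-maximal concentration above that set limit.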 Some of the results follow.

Usually EC50 stands for the concentration at which the effect is half-maximal.

This assay is described as follows: inhibitors of ADP-Glo detection reagents, dose response, artefact control for GSK3beta inhibitor project, biochemical, luminescence, cell-free, homogeneous (AID 434947).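 Further: kinase-free counter screen of ADP-Glo detection reagents for GSK3beta hits.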 To be noted: 5 uM ADP. On the technique in general: ADP-Glo turns the ADP formed in a reaction into a luminescent signal.
Consider `COc1cc(-c2cc(=O)c3c(O)c(OC)c(OC)c(O)c3o2)ccc1O`, for which the EC50 was inactive: > 30 µM.
To `Cc1cc(CNC(=O)C(C)n2cc([N+](=O)[O-])cn2)c2ccccc2n1` (configuration not stated) belongs inactive: > 30 µM.
The same measure for `COc1ccc(CC(=O)Nc2ncc([N+](=O)[O-])s2)cc1OC`: inactive: > 30 µM.
On to `NC(=O)c1ccc(Oc2ccc(Cl)c3ccccc23)c([N+](=O)[O-])c1`, for which the EC50 was inactive: > 30 µM.
To `CCOC(=O)c1c(C)[nH]c(C)c1C(=O)COC(=O)CNC(=O)c1ccc(OCC)cc1` belongs inactive: > 30 µM; to `O=C(CSc1ncnc2c1cnn2-c1ccc(F)cc1)NCC1CCCO1` (configuration not stated), inactive: > 30 µM.
With `O=C(N/N=C\c1ccco1)Nc1cccc(Cl)c1`, the EC50 is inactive: > 30 µM.
To `Cc1ccc(OCC(=O)N/N=C2/SCC(=O)N2Cc2ccccc2)cc1` belongs inactive: > 30 µM; to `COCc1c(C(=O)Nc2ccc(Cl)cc2F)oc2ccccc12`, inactive: > 30 µM.
Turning to `Nn1c(-c2cccs2)nc2sc3c(c2c1=O)CCCC3`, the EC50 is inactive: > 30 µM.
The same measure for `COc1ccccc1-n1c(-c2ccco2)n[nH]c1=S`: inactive: > 30 µM; for `O=C(Nc1ccccc1)ON=C1c2ccccc2-c2ccccc21`: inactive: > 30 µM.
To `COC(CSc1nc(N)c2c3c(sc2n1)CN(C)CC3)OC` belongs inactive: > 30 µM; to `O/N=C/c1cn(-c2ccccc2)nc1-c1cccnc1`, inactive: > 30 µM.
The same measure for `O=C(Nc1nc2ccc(Cl)cc2s1)C1CC1`: inactive: > 30 µM.
In the case of `CCC(=O)Nc1nn(CC(C)C)c2nc3ccc(C)cc3cc12`, the EC50 is inactive: > 30 µM.
The same measure for `c1ccc(-c2nc(NCCCn3ccnc3)c3oc4ccccc4c3n2)cc1`: inactive: > 30 µM; for `CC(Cl)C(=O)Nc1ncc(C(F)(F)F)cc1Cl` (configuration not stated): inactive: > 30 µM; for `COc1ccc(C(=O)c2sc(Nc3ccccc3)nc2N)cc1`: inactive: > 30 µM.
To `O=C(Nc1ccccc1Cl)N1CCSc2ccccc21` belongs inactive: > 30 µM; to `C=CCN=C(NC#N)SCC(=O)NC(C)(C)C`, inactive: > 30 µM.
To `CC1CCN(C(=O)CSc2nc(N)c3c4c(sc3n2)CN(C)CC4)CC1` belongs inactive: > 30 µM; to `Nc1ncnc2c1ncn2[C@@H]1O[C@H](CO)[C@@H](O)[C@H]1O`, inactive: > 30 µM.
For `N#Cc1c(N)nc(-c2ccccc2)nc1-c1ccccc1`, the EC50 was inactive: > 30 µM.
Take `CCCN(CCC)Cc1c(C(=O)N/N=C/c2ccc(Br)cc2)nnn1-c1nonc1N`: the EC50 is inactive: > 30 µM.
`NC(=O)C1CCN(C(=O)c2ccc(Oc3cc(Cl)cc(Cl)c3)o2)CC1`: the EC50 is inactive: > 30 µM.
To `CC/C(=N\NC(=S)Nc1cccc(C)c1)c1ccccc1` belongs inactive: > 30 µM.
